Some of the results follow.
compound: Cn1cc(-c2ccc3c(c2)CCN3C(=O)Cc2cccc(C(F)(F)F)c2)c2c(N)ncnc21; assay: log2 fold change, soluble protein after heating vs DMSO (PISA); higher = thermal stabilisation; K562 lysate, 10 uM; active = over 0.2 and 3.5 SD of the protein, either way, in both replicates (recomputed)
Summary of the method: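 Quantification was by TMTpro 16plex LC-MS/MS with equalised channel sums, applied to the supernatant after 21,000xg for 90 min. Samples were crude K562 extract at 1 mg/mL protein in PBS pH 7.4 with 1 mM MgCl2, treated with 10 μM compound for 30 min, heated for 3 min across 48°C-58°C, pooled and brought to 0.5% NP-40 at 4°C. Values are log-two fold changes in thermal stability relative to solvent controls, from duplicates.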

The chains behind the UniProt entries cited, without tags or fusion partners. Where a name states a change or a piece, a line headed by the entry shows the natural chain unless it says otherwise.
UniProt P55199: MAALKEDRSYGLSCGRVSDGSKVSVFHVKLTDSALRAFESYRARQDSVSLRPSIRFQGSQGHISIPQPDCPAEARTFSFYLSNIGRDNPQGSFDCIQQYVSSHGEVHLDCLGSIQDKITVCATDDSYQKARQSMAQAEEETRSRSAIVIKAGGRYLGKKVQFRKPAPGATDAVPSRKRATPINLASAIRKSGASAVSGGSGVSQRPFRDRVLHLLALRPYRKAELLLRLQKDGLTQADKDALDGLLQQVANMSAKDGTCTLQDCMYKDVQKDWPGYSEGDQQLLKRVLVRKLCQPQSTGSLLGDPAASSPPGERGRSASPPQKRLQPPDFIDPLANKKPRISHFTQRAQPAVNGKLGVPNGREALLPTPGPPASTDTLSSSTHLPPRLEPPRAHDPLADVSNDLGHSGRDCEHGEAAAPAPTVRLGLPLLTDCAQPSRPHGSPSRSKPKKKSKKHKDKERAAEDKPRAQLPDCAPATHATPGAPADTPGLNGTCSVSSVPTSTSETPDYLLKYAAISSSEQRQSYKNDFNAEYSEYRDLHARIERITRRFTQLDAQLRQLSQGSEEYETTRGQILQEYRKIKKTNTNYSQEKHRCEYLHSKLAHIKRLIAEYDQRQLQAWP
UniProt P34913, whole entry, looked up: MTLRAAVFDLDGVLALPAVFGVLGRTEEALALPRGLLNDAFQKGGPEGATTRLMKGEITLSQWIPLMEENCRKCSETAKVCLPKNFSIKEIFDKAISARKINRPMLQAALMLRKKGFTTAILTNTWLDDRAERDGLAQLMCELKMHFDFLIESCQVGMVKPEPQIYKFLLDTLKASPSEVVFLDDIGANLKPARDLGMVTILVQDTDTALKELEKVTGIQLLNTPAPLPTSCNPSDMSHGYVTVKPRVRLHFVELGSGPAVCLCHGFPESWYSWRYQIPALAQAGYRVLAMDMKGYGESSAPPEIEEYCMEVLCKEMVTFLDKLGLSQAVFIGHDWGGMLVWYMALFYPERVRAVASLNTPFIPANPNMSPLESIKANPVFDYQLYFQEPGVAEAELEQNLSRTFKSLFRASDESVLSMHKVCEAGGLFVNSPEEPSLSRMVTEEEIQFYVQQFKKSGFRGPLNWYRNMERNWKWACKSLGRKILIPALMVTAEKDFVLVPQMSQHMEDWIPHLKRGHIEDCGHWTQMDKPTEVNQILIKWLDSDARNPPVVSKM
UniProt O75356: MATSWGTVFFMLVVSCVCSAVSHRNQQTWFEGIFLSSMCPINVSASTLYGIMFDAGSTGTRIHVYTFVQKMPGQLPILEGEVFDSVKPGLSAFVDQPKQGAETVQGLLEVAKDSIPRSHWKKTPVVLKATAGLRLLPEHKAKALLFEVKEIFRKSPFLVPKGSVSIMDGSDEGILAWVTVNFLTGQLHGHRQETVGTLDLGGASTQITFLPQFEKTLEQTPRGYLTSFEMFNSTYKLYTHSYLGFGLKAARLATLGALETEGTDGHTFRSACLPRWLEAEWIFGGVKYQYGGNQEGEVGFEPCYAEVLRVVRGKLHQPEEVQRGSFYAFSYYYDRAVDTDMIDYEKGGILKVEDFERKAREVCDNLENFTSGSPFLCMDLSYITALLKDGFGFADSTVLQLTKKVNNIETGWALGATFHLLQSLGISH
UniProt P20042, whole entry, looked up: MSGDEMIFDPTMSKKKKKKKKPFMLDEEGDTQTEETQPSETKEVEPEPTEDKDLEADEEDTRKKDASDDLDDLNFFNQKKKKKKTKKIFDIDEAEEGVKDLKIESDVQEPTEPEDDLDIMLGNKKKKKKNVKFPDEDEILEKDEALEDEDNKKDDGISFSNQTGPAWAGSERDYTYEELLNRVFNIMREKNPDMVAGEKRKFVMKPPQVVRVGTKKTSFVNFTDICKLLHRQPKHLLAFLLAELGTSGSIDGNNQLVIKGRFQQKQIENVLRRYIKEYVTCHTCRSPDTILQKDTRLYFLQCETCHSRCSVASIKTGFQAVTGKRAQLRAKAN
UniProt O75822, whole entry, looked up: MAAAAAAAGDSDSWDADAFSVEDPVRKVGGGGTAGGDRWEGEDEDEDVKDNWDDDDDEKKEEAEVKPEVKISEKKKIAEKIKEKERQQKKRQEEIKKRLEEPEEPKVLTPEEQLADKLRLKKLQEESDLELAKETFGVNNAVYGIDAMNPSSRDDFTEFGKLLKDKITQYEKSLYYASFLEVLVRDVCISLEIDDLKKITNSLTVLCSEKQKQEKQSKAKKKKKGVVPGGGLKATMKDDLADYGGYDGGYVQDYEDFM
UniProt O43768: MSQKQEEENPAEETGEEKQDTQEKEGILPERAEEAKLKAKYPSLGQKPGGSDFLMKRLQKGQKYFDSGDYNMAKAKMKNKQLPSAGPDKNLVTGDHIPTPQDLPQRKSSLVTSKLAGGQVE
UniProt O75821, whole entry, looked up: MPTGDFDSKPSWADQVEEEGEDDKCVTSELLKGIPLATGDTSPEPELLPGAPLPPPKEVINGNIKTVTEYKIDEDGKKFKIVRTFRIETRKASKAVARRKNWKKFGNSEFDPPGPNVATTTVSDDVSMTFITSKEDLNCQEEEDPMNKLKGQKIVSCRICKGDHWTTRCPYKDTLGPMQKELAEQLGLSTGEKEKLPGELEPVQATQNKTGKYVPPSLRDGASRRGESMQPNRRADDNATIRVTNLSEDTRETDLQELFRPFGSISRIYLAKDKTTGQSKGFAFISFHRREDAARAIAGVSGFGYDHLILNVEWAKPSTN
UniProt Q04637, whole entry, looked up: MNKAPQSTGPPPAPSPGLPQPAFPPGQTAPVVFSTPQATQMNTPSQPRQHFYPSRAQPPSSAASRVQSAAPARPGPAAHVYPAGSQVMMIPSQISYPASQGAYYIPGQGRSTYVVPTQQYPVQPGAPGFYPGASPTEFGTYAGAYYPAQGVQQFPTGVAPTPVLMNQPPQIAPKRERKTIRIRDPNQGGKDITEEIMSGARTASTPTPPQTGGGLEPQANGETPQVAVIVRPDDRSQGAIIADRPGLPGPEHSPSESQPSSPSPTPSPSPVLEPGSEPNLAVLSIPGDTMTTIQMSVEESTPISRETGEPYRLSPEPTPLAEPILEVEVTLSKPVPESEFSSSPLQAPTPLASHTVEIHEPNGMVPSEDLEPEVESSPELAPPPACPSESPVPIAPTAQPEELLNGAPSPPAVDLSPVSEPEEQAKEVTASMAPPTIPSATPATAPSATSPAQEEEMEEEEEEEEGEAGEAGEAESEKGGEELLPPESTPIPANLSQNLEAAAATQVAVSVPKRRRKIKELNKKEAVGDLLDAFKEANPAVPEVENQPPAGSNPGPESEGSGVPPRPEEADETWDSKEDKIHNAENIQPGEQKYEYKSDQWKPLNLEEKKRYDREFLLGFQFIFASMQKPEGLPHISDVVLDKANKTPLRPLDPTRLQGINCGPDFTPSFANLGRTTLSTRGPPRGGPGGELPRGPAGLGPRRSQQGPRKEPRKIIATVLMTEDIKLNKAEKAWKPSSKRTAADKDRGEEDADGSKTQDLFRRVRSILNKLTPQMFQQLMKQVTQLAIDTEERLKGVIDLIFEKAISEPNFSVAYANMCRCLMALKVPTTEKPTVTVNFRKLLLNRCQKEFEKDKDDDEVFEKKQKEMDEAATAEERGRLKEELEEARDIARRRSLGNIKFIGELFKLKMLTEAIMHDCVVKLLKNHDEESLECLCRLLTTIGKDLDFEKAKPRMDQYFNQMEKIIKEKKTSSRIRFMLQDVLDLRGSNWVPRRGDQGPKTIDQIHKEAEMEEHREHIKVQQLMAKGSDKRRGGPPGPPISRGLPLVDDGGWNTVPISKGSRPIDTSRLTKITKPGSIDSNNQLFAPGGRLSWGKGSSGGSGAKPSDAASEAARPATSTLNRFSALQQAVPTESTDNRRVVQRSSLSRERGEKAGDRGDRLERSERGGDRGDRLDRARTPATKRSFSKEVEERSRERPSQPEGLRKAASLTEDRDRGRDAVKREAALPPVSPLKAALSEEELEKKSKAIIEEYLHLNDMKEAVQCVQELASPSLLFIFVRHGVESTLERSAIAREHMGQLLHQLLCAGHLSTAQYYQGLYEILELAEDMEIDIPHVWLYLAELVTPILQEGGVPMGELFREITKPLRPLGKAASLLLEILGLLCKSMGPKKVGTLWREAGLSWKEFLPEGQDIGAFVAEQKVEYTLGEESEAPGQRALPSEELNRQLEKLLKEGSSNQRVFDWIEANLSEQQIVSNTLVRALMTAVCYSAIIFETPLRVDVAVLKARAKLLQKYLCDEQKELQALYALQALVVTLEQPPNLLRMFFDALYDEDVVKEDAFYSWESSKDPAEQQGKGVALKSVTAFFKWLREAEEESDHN
UniProt Q7L2H7, whole entry, looked up: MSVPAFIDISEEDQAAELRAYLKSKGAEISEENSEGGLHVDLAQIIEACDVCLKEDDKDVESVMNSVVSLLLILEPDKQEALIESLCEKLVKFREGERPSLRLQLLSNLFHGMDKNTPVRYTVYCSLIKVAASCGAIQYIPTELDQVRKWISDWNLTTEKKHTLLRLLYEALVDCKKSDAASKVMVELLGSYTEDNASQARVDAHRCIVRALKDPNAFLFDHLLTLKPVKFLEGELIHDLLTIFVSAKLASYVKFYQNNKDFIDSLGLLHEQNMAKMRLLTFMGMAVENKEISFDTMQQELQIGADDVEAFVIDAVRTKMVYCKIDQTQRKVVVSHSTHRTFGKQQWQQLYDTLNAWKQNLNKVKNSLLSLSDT
UniProt Q9H4G0, whole entry, looked up: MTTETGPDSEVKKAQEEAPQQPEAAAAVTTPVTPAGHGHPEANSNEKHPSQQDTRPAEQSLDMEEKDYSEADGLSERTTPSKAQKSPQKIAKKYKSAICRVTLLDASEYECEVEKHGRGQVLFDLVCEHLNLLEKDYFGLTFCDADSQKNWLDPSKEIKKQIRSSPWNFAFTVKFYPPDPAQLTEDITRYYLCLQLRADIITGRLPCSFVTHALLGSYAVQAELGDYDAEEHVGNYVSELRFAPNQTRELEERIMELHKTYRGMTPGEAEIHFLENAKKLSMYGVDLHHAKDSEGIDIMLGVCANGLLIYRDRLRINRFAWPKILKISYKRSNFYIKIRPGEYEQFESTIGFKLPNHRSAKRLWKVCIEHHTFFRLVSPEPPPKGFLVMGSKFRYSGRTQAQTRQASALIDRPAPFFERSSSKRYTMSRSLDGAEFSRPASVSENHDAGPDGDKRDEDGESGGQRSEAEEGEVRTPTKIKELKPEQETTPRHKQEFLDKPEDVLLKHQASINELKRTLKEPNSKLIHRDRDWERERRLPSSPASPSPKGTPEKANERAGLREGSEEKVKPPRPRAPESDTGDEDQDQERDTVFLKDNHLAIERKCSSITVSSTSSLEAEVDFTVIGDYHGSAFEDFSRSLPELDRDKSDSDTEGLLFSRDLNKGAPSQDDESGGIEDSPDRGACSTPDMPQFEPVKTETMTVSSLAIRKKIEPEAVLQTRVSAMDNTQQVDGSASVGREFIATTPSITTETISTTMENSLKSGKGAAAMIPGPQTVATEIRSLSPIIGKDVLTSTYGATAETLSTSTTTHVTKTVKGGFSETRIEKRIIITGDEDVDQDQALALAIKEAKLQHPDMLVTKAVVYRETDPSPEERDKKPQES
UniProt Q9NPA8: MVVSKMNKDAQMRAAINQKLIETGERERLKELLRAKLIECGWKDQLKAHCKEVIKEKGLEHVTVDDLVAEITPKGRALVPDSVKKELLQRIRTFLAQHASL

log2 fold change, inactive:
ELL (UniProt P55199) 0.002, EPHX2 (UniProt P34913) 0.007, ENTPD5 (UniProt O75356) 0.049, EIF2S2 (UniProt P20042) -0.012, EIF3J (UniProt O75822) -0.015, ENSA isoform 3 (UniProt O43768) -0.002, EIF3G (UniProt O75821) -0.014, ERCC2 (UniProt P18074) 0.039, EIF4G1 (UniProt Q04637) 0.016, EIF3M (UniProt Q7L2H7) -0.003, EPB41L1 (UniProt Q9H4G0) -0.01, ENY2 (UniProt Q9NPA8) 0.033

Source: the supplement of paper PMC10849652
